Assay results published in US20170049842A1, “FOOD ADDITIVE FOR PRODUCING FOOD FOR PREVENTING CRANIAL NERVE DISEASE AND/OR IMPROVING BRAIN FUNCTION” (FUJI OIL HOLDINGS INC., priority 2014, published 2017).
Part of at least one peptide drawing is inferred or uncertain, most often the ends. Some entries repeat one wording, which the source may state once for all of them. Peptide text beside a SMILES is read from it.

System: metabolic turnover of noradrenaline and dopamine in cerebral cortex and hippocampus
Experiment: Metabolic turnover rate of noradrenaline and dopamine in mouse brain after forced oral administration
Format: in vivo, Mouse (C57BL/6NCrlCrlj)
Details: for metabolic turnover rate of monoamines such as dopamine and noradrenaline compared to the control, in words: cerebral cortex and hippocampus of mouse brain; for Dopamine metabolic turnover rate ((HVA+DOPAC)/DA), Ratio peptide/Control / Noradrenaline metabolic turnover rate (MHPG/NE), Ratio peptide/Control: 50 mM aqueous solution 0.6 ml/30 g body weight by sonde, n = 5-8
[1] = cerebral cortex, 30 min post-dose
[2] = cerebral cortex, 60 min post-dose

SMILES | metabolic turnover rate of monoamines such as dopamine and noradrenaline compared to the control, in words | Dopamine metabolic turnover rate ((HVA+DOPAC)/DA), Ratio peptide/Control [1] | Noradrenaline metabolic turnover rate (MHPG/NE), Ratio peptide/Control [1] | Dopamine metabolic turnover rate ((HVA+DOPAC)/DA), Ratio peptide/Control [2] | Noradrenaline metabolic turnover rate (MHPG/NE), Ratio peptide/Control [2] | Dopamine metabolic turnover rate ((HVA+DOPAC)/DA), Ratio peptide/Control (hippocampus, 30 min post-dose) | Noradrenaline metabolic turnover rate (MHPG/NE), Ratio peptide/Control (hippocampus, 30 min post-dose) | Dopamine metabolic turnover rate ((HVA+DOPAC)/DA), Ratio peptide/Control (hippocampus, 60 min post-dose) | Noradrenaline metabolic turnover rate (MHPG/NE), Ratio peptide/Control (hippocampus, 60 min post-dose)
N[C@@H](Cc1ccc(O)cc1)C(=O)N1CCC[C@H]1C(=O)O [E, Tyr-Pro] (H-Tyr-Pro-OH; N-terminus and C-terminus assumed) | significantly higher | 0.92 times | 2.20 times | 1.01 times | 1.74 times | 0.95 times | 1.76 times | 1.04 times | 1.45 times
N[C@@H](CO)C(=O)N[C@@H](Cc1ccc(O)cc1)C(=O)O [A, Ser-Tyr] (H-Ser-Tyr-OH; N-terminus and C-terminus assumed) | significantly higher | 0.94 times | 2.67 times | 0.98 times | 3.13 times | 0.98 times | 2.23 times | 1.17 times | 2.47 times
CC[C@H](C)[C@H](N)C(=O)N[C@@H](Cc1ccc(O)cc1)C(=O)O [H, Ile-Tyr] (H-Ile-Tyr-OH; N-terminus and C-terminus assumed) | significantly higher | 0.93 times | 1.99 times | 1.03 times | 1.53 times | 1.08 times | 1.74 times | 1.27 times | 1.34 times
